Experimental data as given in publication PMC3805608.
No constants are given. Whether binding was seen depends on the method and setting. For some assays here: Binding calls can cover weak binding; strength is not graded here. For some assays here: In cells and extracts the contact can be indirect. Values belong to the molecule of their own block, whether it stands above or below them.

Sequences of proteins named here, by UniProt entry; tags and fusion partners are left off. A change or cut given only in a name is not applied to a line headed by its entry. Residues count along the entry.
UniProt E2QC84: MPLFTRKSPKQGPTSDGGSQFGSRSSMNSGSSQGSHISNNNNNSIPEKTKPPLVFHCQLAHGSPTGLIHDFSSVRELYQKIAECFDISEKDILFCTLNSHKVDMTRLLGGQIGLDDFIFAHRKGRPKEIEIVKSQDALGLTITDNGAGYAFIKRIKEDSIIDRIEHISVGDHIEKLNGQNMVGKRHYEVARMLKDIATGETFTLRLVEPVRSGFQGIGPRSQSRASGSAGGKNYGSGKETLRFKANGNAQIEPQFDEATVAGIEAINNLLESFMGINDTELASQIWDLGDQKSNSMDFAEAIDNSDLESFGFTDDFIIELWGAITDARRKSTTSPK
UniProt P16378: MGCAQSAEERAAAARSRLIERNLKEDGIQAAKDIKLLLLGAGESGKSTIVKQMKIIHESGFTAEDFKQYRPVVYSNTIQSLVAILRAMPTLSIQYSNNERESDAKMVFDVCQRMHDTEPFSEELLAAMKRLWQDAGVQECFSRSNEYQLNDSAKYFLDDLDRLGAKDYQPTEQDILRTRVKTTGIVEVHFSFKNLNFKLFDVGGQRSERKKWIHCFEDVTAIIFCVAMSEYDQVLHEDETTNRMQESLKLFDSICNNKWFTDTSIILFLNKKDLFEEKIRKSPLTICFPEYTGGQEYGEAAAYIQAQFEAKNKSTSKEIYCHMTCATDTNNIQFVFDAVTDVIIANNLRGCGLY
UniProt P18537, residues 19-581: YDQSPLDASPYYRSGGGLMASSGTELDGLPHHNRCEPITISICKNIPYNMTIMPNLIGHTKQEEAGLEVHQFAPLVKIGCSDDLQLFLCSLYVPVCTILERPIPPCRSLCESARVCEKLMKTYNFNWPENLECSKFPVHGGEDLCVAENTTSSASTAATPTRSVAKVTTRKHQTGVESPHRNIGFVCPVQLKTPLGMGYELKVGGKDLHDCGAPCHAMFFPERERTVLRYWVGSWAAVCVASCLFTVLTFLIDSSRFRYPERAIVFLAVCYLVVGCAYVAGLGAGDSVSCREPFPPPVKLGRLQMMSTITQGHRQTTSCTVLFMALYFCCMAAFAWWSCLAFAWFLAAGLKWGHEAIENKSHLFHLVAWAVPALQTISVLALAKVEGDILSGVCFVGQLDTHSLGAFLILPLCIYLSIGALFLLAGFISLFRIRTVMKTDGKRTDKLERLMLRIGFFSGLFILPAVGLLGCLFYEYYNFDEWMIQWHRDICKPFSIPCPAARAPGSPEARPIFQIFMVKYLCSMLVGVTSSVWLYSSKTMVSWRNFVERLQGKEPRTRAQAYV

Legend:
[1] = molecular target: MBP-Kermit (Drosophila) (UniProt E2QC84); assay: pull-down; MBP-Kermit immobilised on matrix; Drosophila head extracts from GMR-Gal4; UAS-Gαo flies; 3 h at 4°C, Western blot with anti-Gαo/i3; only the target purified
[2] = molecular target: MBP-Kermit (Drosophila) (UniProt E2QC84); assay: pull-down; MBP-Kermit, His6-CG5036 or His6-Rab5 linked on CNBr-activated Sepharose; MBP-Fz from bacterial membranes solubilized with 10 mM CHAPS (30 min, 4°C); 3 h at 4°C, Western blot; only the target purified
[3] = molecular target: His6-Gαo (Drosophila) (UniProt P16378); assay: pull-down; His6-Gαo (preloaded with 1 mM GDP or GTPγS) or control GST covalently linked on CNBr-activated Sepharose; soluble MBP-Kermit preparation (with cleaved MBP) added; HKB buffer (50 mM HEPES-NaOH, 100 mM KCl, 10 mM NaCl, 1 mM DTT, 5 mM MgCl2, pH 7.5), 3 h at 4°C, 5 washes, elution with 8 M urea, Western blot; both purified
[4] = molecular target: MBP-Kermit (Drosophila) (UniProt E2QC84); assay: pull-down; MBP-Kermit immobilised (amylose resin by the results, CNBr-Sepharose by the methods); soluble purified Gαo, human RGS19 or CG5036 added in equimolar amounts; HKB buffer, 3 h at 4°C, Western blot; both purified
[5] = molecular target: MBP-Kermit (Drosophila) (UniProt E2QC84); assay: as above; remark: listed apart in the source

Molecule: Gαo from Drosophila head extracts (from UniProt P16378 1-354)
binding [1]: binds

Molecule: His6-Gαo (from UniProt P16378 1-354)
binding [4]: binds

B1: human RGS19 (protein, UniProt P49795 1-217)
chain: MPTPHEAEKQITGPEEADRPPSMSSHDTASPAAPSRNPCCLCWCCCCSCSWNQERRRAWQASRESKLQPLPSCEVCATPSPEEVQSWAQSFDKLMHSPAGRSVFRAFLRTEYSEENMLFWLACEELKAEANQHVVDEKARLIYEDYVSILSPKEVSLDSRVREGINKKMQEPSAHTFDDAQLQIYTLMHRDSYPRFLSSPTYRALLLQGPSQSSSEA
binding [5]: binds

Continued, values first:

binding [2]: no binding
Molecule: MBP-Fz (from UniProt P18537 19-581) (receptor)

binding [3]: binds
Molecule: MBP-Kermit (from UniProt E2QC84)
